Experimental data: paper PMC4978403
Read-outs that look alike come from different tables or passages of the source. Results are given in words; binding and its absence hold for the method and conditions named. Binding seen in cells or lysates may run through a third protein. Some binding calls cover weakened binding; strength is not graded here. Sequences can lack the tags named with a protein. Each block holds one molecule with its values, some of them ahead of it.

Protein sequences, listed by entry. Tags and fused reporters are not part of them.
UniProt P46936: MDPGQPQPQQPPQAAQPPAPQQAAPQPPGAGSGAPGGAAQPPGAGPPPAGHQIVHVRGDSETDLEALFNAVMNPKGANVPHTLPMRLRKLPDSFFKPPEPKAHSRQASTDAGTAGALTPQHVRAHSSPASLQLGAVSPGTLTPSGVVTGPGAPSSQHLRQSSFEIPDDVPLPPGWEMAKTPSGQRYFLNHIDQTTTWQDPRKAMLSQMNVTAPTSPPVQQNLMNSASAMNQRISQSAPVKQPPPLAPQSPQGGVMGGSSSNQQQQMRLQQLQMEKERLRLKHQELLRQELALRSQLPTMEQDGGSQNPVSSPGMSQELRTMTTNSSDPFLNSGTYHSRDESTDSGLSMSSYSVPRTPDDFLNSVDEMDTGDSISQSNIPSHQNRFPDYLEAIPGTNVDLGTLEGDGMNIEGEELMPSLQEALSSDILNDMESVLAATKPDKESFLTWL

What was measured:
[1] = biological target: T1, FLAG-SAV1 (chicken Salvador homolog 1, FLAG-tagged) (chicken) (UniProt E1C3T7); experiment: co-IP; chicken granulosa cells transfected with pFLAG-SAV1 for 24 h; lysates immunoprecipitated with an antibody to FLAG (control: chicken IgG); 50 mM Tris-HCl pH 7.4, 150 mM NaCl, 0.2 mM PMSF, 1% Triton X-100, 1 mM EDTA; immunoblot for the endogenous partners
T1 sequence: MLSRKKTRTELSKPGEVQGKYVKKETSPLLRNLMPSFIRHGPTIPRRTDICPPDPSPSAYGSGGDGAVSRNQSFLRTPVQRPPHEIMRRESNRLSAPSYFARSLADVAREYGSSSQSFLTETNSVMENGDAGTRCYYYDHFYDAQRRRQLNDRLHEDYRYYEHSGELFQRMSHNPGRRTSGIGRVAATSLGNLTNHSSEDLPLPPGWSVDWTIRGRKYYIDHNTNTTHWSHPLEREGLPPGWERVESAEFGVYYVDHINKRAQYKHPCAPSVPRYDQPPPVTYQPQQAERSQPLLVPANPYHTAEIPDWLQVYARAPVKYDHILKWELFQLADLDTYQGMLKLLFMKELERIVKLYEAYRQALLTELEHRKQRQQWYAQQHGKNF

[2] = biological target: T1, FLAG-SAV1 (chicken Salvador homolog 1, FLAG-tagged) (chicken); experiment: as above; remark: listed apart in the source
[3] = biological target: T2, GST-SAV1 fusion protein (chicken SAV1) (chicken) (UniProt E1C3T7); experiment: pull-down; CHO cells co-transfected with pSF-GST-SAV1 (or empty pSF-GST) and one of pcDNA3.0-STK4, STK3, LATS1, MOB2 for 24 h; lysates incubated with Glutathione Sepharose 4B beads overnight, washed three times with lysis buffer; western blot
T2 sequence: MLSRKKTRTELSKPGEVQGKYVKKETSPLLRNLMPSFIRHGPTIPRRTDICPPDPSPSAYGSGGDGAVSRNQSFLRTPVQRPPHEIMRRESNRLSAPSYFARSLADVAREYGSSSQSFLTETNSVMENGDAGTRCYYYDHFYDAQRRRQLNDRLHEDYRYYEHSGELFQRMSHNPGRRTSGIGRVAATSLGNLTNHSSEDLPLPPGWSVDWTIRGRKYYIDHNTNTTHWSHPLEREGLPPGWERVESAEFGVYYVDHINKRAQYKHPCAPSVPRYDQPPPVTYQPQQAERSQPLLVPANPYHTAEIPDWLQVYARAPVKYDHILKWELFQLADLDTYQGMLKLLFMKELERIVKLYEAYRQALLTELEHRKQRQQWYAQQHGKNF

binding [1]: no binding
Molecule: YAP1 (chicken Yes-associated protein), endogenous (from UniProt P46936 1-448)

binding [2]: binds
B1: STK4/MST1 (chicken serine/threonine kinase 4), endogenous (protein, UniProt Q5ZJK4 1-486)
chain: METVQLRNPRRQLKKLDEDSLTKQPEEVFDVLEKLGEGSYGSVFKAIHKETGQVVAIKQVPVESDLQEIIKEISIMQQCDSPHVVKYYGSYFKNTDLWIVMEYCGAGSVSDIIRLRNKTLTEEEIATIVQSTLKGLEYLHFMRKIHRDIKAGNILLNTEGHAKLADFGVAGQLTDTMAKRNTVIGTPFWMAPGVIQEIGYNCVADIWSLGITAIEMAEGKPPYADIHPMRAIFMIPTNPPPTFRKPELWSDAFTDFVKQCLVKSPEQRATAIQLLQHPFVKSAKGASILRDLINEAMDIKLKRQEAQQRELDQEDEENSEEDETDSGTMVRASGDETGTIRVVNTMSDGANTMIEHDGTLESQLGTMVINTEDEEEEGTMKRRDETMQPARPSFLEYFEQKAKENQVNSFGKNVSGQTKNSSDWKVPQDGDYEFLKTWSVDELQRRLSALDPMMEQEIEEIRQKYQSKRQPILDAIEAKKRRQQNF

binding [3]: binds
B2: STK4 (chicken), expressed from pcDNA3.0-STK4 (protein, UniProt Q5ZJK4 1-486)
chain: METVQLRNPRRQLKKLDEDSLTKQPEEVFDVLEKLGEGSYGSVFKAIHKETGQVVAIKQVPVESDLQEIIKEISIMQQCDSPHVVKYYGSYFKNTDLWIVMEYCGAGSVSDIIRLRNKTLTEEEIATIVQSTLKGLEYLHFMRKIHRDIKAGNILLNTEGHAKLADFGVAGQLTDTMAKRNTVIGTPFWMAPGVIQEIGYNCVADIWSLGITAIEMAEGKPPYADIHPMRAIFMIPTNPPPTFRKPELWSDAFTDFVKQCLVKSPEQRATAIQLLQHPFVKSAKGASILRDLINEAMDIKLKRQEAQQRELDQEDEENSEEDETDSGTMVRASGDETGTIRVVNTMSDGANTMIEHDGTLESQLGTMVINTEDEEEEGTMKRRDETMQPARPSFLEYFEQKAKENQVNSFGKNVSGQTKNSSDWKVPQDGDYEFLKTWSVDELQRRLSALDPMMEQEIEEIRQKYQSKRQPILDAIEAKKRRQQNF
